Data as given in PMC10969620.
These are yes or no findings as the source states them, for the method shown. Binding calls can cover weak binding; strength is not graded here. Tags and fused reporters may be left off the sequences shown.

Biological target: T1, untagged CD30 ligand isoform 1 (human) (UniProt P32971)
T1 sequence: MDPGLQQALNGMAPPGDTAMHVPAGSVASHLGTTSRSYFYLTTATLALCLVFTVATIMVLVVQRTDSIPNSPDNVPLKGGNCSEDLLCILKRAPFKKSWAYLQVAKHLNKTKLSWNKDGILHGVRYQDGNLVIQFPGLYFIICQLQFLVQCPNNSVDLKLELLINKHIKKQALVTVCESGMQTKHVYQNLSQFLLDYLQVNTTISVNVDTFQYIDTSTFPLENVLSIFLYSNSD
Assay: antibody sandwich plate-based assay (Meso Scale electrochemiluminescence); Iso1-specific anti-CD30L antibody coated for capture; lysates of HEK cells expressing Iso1 with or without Iso2-FLAG, or Iso2-FLAG alone; anti-FLAG detection

Substance: FLAG-tagged CD30 ligand isoform 2 (human)
- binding: binds
